PubChem BioAssay AID1347075 (National Center for Advancing Translational Sciences (NCATS), 2019)
About 5,500 (1.4%) of roughly 400,000 compounds were called active. Inconclusive results, whose numbers are uncertain, are shown with a selection of clear calls. Calls come from the whole dose curve; as a rule, active = well fitted cell-killing curve with a large enough effect; inconclusive = small, poorly fitted or top-dose-only effect, or effect the other way; inactive = flat fitted curve, though single readings scatter. Potencies of inconclusive entries are doubtful fits and often do not repeat. More than one record can exist for a structure, and the calls need not agree.
% is set by controls: 0 for no effect and ±100 for the full control effect; potency is the fitted concentration of half-maximal effect.

Experiment: qHTS assay for MDR1-selective chemotherapeutics: Primary screen using the parental adenocarcinoma cell KB-3-1; note: nearly all actives have a fitted effect of over 60% in size
Details: KB-3-1 viability, CellTiter-Glo ATP luminescence, 72 h; activity change, negative = cytotoxic: at 46.1 µM (top of the series)
Method in brief: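 Luminescent ATP read-out (CellTiter-Glo) measures survival of drug-naive KB-3-1 cells after 72 h compound exposure at 37 °C. Titration series was screened from lowest to highest concentration, with DMSO vehicle plates as background controls.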
With `COC(=O)c1sccc1S(=O)(=O)NC(C)c1cnn(-c2ccc(OC)cc2)c1C` (centres undefined) the “activity change, negative = cytotoxic” value was inactive: -5.83%. In the case of `Cc1cc(C)nc(NC(=O)/C=C/c2ccc(Cl)cc2Cl)c1`, the “activity change, negative = cytotoxic” value is reported as inactive: -4.75%. In the case of `CCc1nc2ccc(C(=O)Nc3cccc(OC)c3)cn2c1N(CC)CCOC`, the Potency is reported as inconclusive: 4.11 µM [rising, partial curve]. In the case of `CN(CC(=O)Nc1ccc(Cl)cc1)C(=O)CCC1CCCC1`, the “activity change, negative = cytotoxic” value is reported as inactive: -13.1%. For `O=c1ccnc(SCCc2ccc([N+](=O)[O-])cc2)[nH]1`, the Potency was inconclusive: 23.1 µM [cytotoxic, single point]. For `CCN(CC)CCCN1C(=O)C2C(C(=O)Nc3ccc(C(C)C)cc3)C3C=CC2(O3)C1C(=O)NC1CCCCC1` (centres undefined), the Potency was inconclusive: 29.1 µM [rising, single point]. For `O=C(Nc1ccc(Cl)cc1)Nc1nnc(CSc2ccc(Cl)cc2)s1`, the Potency was inconclusive: 29.1 µM [cytotoxic, single point]. For `O=C(Nc1ccccc1C(F)(F)F)c1cc2ncc(CCCl)cn2n1`, the “activity change, negative = cytotoxic” value was inactive: -0.67%. In the case of `COc1ccc(CC(=O)c2ccc(OC)c(OC)c2C)cc1OC`, the Potency is reported as active: 6.51 µM. For `C[C@@H]1CNC(=O)c2c(C(=O)Nc3cccc(Cl)c3)ncn21`, the Potency was inconclusive: 16.4 µM [cytotoxic, single point]. With `CC(C)(C)N(CC#CCC1(O)c2ccccc2-c2ccccc21)CCO` the “activity change, negative = cytotoxic” value was inactive: -9.75%. In the case of `N#CC1=C(N)Oc2cc(N)ccc2C1c1ccc(F)cc1` (centres undefined), the Potency is reported as inconclusive: 29.1 µM [cytotoxic, single point]. For `Cc1ccc(S(=O)(=O)N2CCc3cc(C(=O)Nc4c(C)cccc4C(C)C)ccc32)cc1`, the “activity change, negative = cytotoxic” value was inactive: -1.93%. For `COc1cc(C(=O)O)ccc1OCc1c(C)noc1C`, the “activity change, negative = cytotoxic” value was inactive: 5.46%. In the case of `CNc1nc(-c2ccc3c(c2)CCN3C(=O)c2ccccc2C)cs1`, the Potency is reported as inconclusive: 29.1 µM [cytotoxic, single point]. In the case of `Cc1ccc(C(=O)N/C(=C/c2ccc(C(C)C)cc2)C(=O)NCCCN2CCOCC2)cc1`, the “activity change, negative = cytotoxic” value is reported as inactive: 2.97%. With `CC[C@H](C)C(=O)O[C@H]1CCC=C2C=C[C@H](C)[C@H](CC[C@@H]3C[C@@H](O)CC(=O)O3)[C@H]21` the Potency was inconclusive: 25.9 µM [cytotoxic, single point]. For `COC(=O)C1CCN(S(=O)(=O)CCNC(=O)c2cccc(OC)c2)CC1`, the “activity change, negative = cytotoxic” value was inactive: -7.68%. With `CCC(Sc1nc(-c2ccccc2)c(-c2ccccc2)[nH]1)C(=O)O` (centres undefined) the “activity change, negative = cytotoxic” value was inactive: 5.08%. With `Cc1cn2c(-c3ccncc3)nnc2s1` the Potency was inconclusive: 31.6 µM [cytotoxic, single point]. For `Cc1ccc(C2c3c(oc4ccccc4c3=O)C(=O)N2c2nnc(C(C)C)s2)o1` (centres undefined), the Potency was inconclusive: 16.4 µM [cytotoxic, single point]. In the case of `CC1(C)CC(=O)c2sc(NC(=O)CCS(=O)(=O)c3ccccc3)nc2C1`, the Potency is reported as active: 20.6 µM. With `Cc1ccc(N(CC(=O)NCc2ccncc2)S(C)(=O)=O)cc1` the activity change, negative = cytotoxic was inconclusive: 13.2%. For `CCOC(=O)N1CCc2cc(OC)c(OC)c3c2c1cc1cc(OC)c(OC)cc13`, the Potency was active: 4.11 µM. For `CC(C)NS(=O)(=O)c1ccc(Oc2ncc(C(F)(F)F)cc2Cl)cc1`, the Potency was inconclusive: 29.1 µM [cytotoxic, single point]. For `Cc1ccc(C(C)C)c(OCc2nn(CC(=O)c3ccc(Cl)cc3)c3[n+]2CCCCC3)c1`, the Potency was inconclusive: 20.6 µM [cytotoxic, partial curve]. With `CCOC1=C2CN(S(=O)(=O)c3ccc(C)cc3)[C@H](c3ccccc3)C[C@@H]2N(S(=O)(=O)c2ccc(C)cc2)[C@H](c2cccc(C)c2)C1` the “activity change, negative = cytotoxic” value was inactive: -0.285%. For `CCC(=O)c1c[nH]c(C(=O)NCc2cccnc2)c1`, the “activity change, negative = cytotoxic” value was inactive: -1.19%. With `CCOC(=O)c1c(NC(=O)c2cc(C)oc2C)sc(C(=O)Nc2ccc(Cl)cc2)c1C` the Potency was inconclusive: 35.5 µM [cytotoxic, single point]. With `CCOc1ccc(C(=O)NCC(=O)NCC(c2ccco2)N2CCCCC2)cc1` (centres undefined) the “activity change, negative = cytotoxic” value was inactive: 1.83%. In the case of `OC1NC(=S)N(c2ccccc2)C1O` (centres undefined), the “activity change, negative = cytotoxic” value is reported as inactive: 1.47%. In the case of `Cc1c(C(=O)O)cccc1-c1ccc(/C=N/Nc2ccc(Br)cc2)o1`, the Potency is reported as inconclusive: 29.1 µM [cytotoxic, partial curve, poor fit]. In the case of `CCOC(=O)[C@]12CCCC=C1N(CCC1=CCCCC1)C(=O)[C@H](CC(=O)NCCCCc1ccccc1)C2`, the Potency is reported as inconclusive: 18.4 µM [cytotoxic, single point]. With `Cc1cc(OCC(=O)Nc2ccc(CN3CCOCC3)cc2)c2c(C)cc(=O)oc2c1` the activity change, negative = cytotoxic was inconclusive: -22%. In the case of `CN(CC(=O)Nc1ccccc1Br)C(=O)CN1CCN(Cc2ccc(Cl)cc2)CC1`, the “activity change, negative = cytotoxic” value is reported as inactive: -0.449%. In the case of `CCC1CCCCN1C(=O)COc1ccc(N(C)S(=O)(=O)c2ccc(C)cc2)cc1` (centres undefined), the Potency is reported as inconclusive: 20.6 µM [cytotoxic, single point]. For `CCCN1CCC(=NNc2ccc(S(=O)(=O)N3CCOCC3)cc2[N+](=O)[O-])CC1`, the Potency was active: 4.61 µM. With `CCn1c2c(c(=O)n3ncc(C(=O)Nc4ccc(Cl)cc4C)c13)CN(Cc1ccc(OC)cc1)CC2` the Potency was inconclusive: 14.6 µM [cytotoxic, partial curve, poor fit]. With `COc1ccccc1CC(=O)Nc1ncc(C)s1` the “activity change, negative = cytotoxic” value was inactive: -0.491%. In the case of `Cc1ccc(NC(=O)c2cc(-c3ccccc3)nn2-c2ccccc2)c(Br)c1`, the Potency is reported as inconclusive: 25.9 µM [cytotoxic, single point]. For `COc1cccc(C(=O)COc2ccc3c(C)cc(=O)oc3c2)c1`, the Potency was inconclusive: 18.4 µM [cytotoxic, single point]. In the case of `O=C(Nc1cccc(-c2cccc(Cl)c2)c1)C1CCN(C2CCC2)CC1`, the Potency is reported as inconclusive: 23.1 µM [cytotoxic, single point]. With `CCOc1ccccc1NC(=O)C1CCCCN1S(=O)(=O)c1ccccc1` (centres undefined) the Potency was inconclusive: 16.4 µM [cytotoxic, partial curve, poor fit]. With `CCc1cccc2c(C(=O)COC(=O)c3ccccc3)c[nH]c12` the “activity change, negative = cytotoxic” value was inactive: -0.809%. For `O=C1CCCN1C(=O)COc1ccccc1[N+](=O)[O-]`, the “activity change, negative = cytotoxic” value was inactive: -1.54%. For `Cc1ccc(S(=O)(=O)N[C@H](C(=O)NC2CCC(C)CC2)C(C)C)cc1` (some centres undefined), the “activity change, negative = cytotoxic” value was inactive: 17.3%. In the case of `O=[N+]([O-])c1ccc(-[n+]2ccc3ccccc3c2)c([N+](=O)[O-])c1`, the Potency is reported as active: 4.61 µM. With `Cc1ccc(C(=O)N/N=C/c2ccc(-c3cccc(Cl)c3)o2)cn1` the Potency was inconclusive: 29.1 µM [cytotoxic, single point]. With `Cc1ccccc1Nc1c(-c2c[nH]c3ccccc23)nc2cccc(C)n12` the “activity change, negative = cytotoxic” value was inactive: -1.74%. For `CCN(CC)CC(O)COc1ccc2c(c1)c(C(C)=O)c(C)n2-c1ccccc1` (centres undefined), the Potency was inconclusive: 16.4 µM [cytotoxic, single point]. With `COc1cc(NC(=S)N2CCC(C(O)(c3ccccc3)c3ccccc3)CC2)cc(OC)c1` the “activity change, negative = cytotoxic” value was inactive: -1.26%. For `CC1(C(=O)NCc2ccccc2)CCC(=O)N1C1CC1` (centres undefined), the “activity change, negative = cytotoxic” value was inactive: 0.0564%. For `CCC1(c2ccccc2)NC(=O)N(CC(=O)N(C)CC(=O)Nc2c(C)cccc2C)C1=O` (centres undefined), the Potency was inconclusive: 13 µM [rising, single point]. For `COc1ccc(-n2c(=S)[nH]c3cc(C(=O)NCc4ccc(F)cc4)ccc3c2=O)c(OC)c1`, the “activity change, negative = cytotoxic” value was inactive: -5.96%. In the case of `O=c1c2sc3ccccc3c2n(Cc2ccc(Cl)cc2)c(=O)n1Cc1ccco1`, the “activity change, negative = cytotoxic” value is reported as inactive: 7.04%. For `Cc1ccc(-n2c(SCC(=O)OC(C)C)nnc2-c2ccccn2)cc1`, the “activity change, negative = cytotoxic” value was inactive: 4.58%. For `Cc1noc(C)c1COc1ccc(C(=O)OCC(=O)NCc2ccccc2Cl)cc1`, the Potency was inconclusive: 29.1 µM [cytotoxic, single point]. With `O=C(Nc1ccc(F)cc1Cl)c1cnc(N2CCOCC2)c2ccccc12` the “activity change, negative = cytotoxic” value was inactive: 0.213%. With `CCOC(=O)N1CCN(C(=O)CN(C2CCCCC2)S(=O)(=O)c2c(C)cc(C)cc2C)CC1` the Potency was inconclusive: 22.4 µM [cytotoxic, single point]. In the case of `CNc1nc(Oc2cccc(NC(C)=O)c2)c2sccc2n1`, the “activity change, negative = cytotoxic” value is reported as inactive: -0.162%. In the case of `NNC(=O)c1csc(COc2cc(Cl)cc(Cl)c2)n1`, the activity change, negative = cytotoxic is reported as inconclusive: -14.3%. For `Cc1ccc(S(=O)(=O)NC(=NCc2ccccc2)c2ccc(F)cc2)cc1`, the Potency was inconclusive: 25.9 µM [cytotoxic, single point]. In the case of `COc1ccc2nc(NC(=O)CS(=O)(=O)Cc3ccccc3)sc2c1`, the Potency is reported as inconclusive: 29.1 µM [cytotoxic, single point]. For `Cc1sc(NC(=O)c2ccccc2)c(C(c2ccc(Cl)cc2)N2CCN(CCO)CC2)c1C` (centres undefined), the Potency was active: 20.6 µM. For `C=Cc1ccc(CC2(C)C(=O)Nc3ccc(-c4cccnc4)cc32)cc1` (centres undefined), the Potency was inconclusive: 29.1 µM [cytotoxic, single point]. For `Cc1ccc(NC(=O)C2CCCN(C(=O)c3ccc(Cl)cc3)C2)cc1C` (centres undefined), the Potency was inconclusive: 16.4 µM [cytotoxic, single point]. In the case of `Fc1ccc(C(c2nnnn2C2CCCC2)N2CCc3ccccc32)cc1` (centres undefined), the Potency is reported as inconclusive: 29.1 µM [cytotoxic, single point]. In the case of `C=C(C)COc1ccc(-c2nc(N)ncc2Oc2ccccc2OC)c(O)c1`, the Potency is reported as inconclusive: 29.1 µM [cytotoxic, single point]. With `c1ccc2c(c1)ccn1c(Cc3ccsc3)c(C3CCCCC3)nc21` the “activity change, negative = cytotoxic” value was inactive: -19.3%. In the case of `CC(=O)CC1c2cc(F)ccc2C=C(c2ccsc2)N1c1ccc(-c2ccc(C(N)=O)cc2)cc1` (centres undefined), the Potency is reported as inconclusive: 29.1 µM [cytotoxic, single point]. With `Cc1cccc(OCCc2c(C)[nH]c(=S)[nH]c2=O)c1` the Potency was inconclusive: 29.1 µM [cytotoxic, single point]. With `COc1ccc(/C=C/c2ccc3ccccc3[n+]2C)cc1OC` the Potency was active: 10.3 µM. For `Cc1csc2nc(COC(=O)c3ccc(Cl)c([N+](=O)[O-])c3)cc(=O)n12`, the “activity change, negative = cytotoxic” value was inactive: 0.249%. In the case of `COCCNC(=O)c1ccc(-n2c(SCc3cc(F)ccc3F)nc3ccccc3c2=O)cc1`, the Potency is reported as inconclusive: 23.1 µM [cytotoxic, single point].
